Laboratory results published in PubChem BioAssay AID652054 (National Center for Advancing Translational Sciences (NCATS), 2013).
Values joined by “and” are separate entries in the source; they are usually repeats but may differ in a detail not shown here. Identical values can stand only once. About 9,100 (2.5%) of roughly 360,000 compounds were called active. The inconclusive results got no clear call from the source; some entries with a clear call stand among them for comparison. No stated cut-off is given here; in the data, active means max response below about -50%; inconclusive means no clear call, values can overlap the other calls; inactive means above that.

By UniProt entry, the sequences of proteins in these tests, tags left out.
UniProt P35462, whole entry, looked up: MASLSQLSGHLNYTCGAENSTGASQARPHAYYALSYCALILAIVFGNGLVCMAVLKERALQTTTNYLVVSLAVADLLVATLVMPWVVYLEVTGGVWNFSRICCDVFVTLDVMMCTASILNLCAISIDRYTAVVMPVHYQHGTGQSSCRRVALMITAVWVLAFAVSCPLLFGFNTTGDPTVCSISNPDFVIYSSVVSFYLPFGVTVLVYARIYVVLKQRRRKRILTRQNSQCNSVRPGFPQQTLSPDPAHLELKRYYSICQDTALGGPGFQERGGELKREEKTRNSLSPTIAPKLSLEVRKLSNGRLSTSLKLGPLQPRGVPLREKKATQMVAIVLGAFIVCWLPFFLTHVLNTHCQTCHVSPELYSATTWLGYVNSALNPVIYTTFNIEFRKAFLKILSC

The compounds below were run against D(3) dopamine receptor (Homo sapiens) (UniProt P35462) (assay: qHTS of D3 Dopamine Receptor Antagonist: qHTS). Conditions: D3R cells, DiscoveRx beta-arrestin luminescence, antagonist mode; stronger effect = lower value.
Summary of the method: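 Cells expressing the human receptor were seeded at 1500 cells/well, incubated overnight at 37 degrees C in 5% CO2, then exposed to library compounds with dopamine controls for 90 minutes at 37 degrees C before luminescent detection.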
On the % scale 0 is the no-effect control and ±100 the full control effect.

SMILES	max response, negative = inhibition
CCOC(=O)c1cc(C)[nH]c(=O)c1C#N	inactive: 19.5%
CCc1nnc(NC(=O)CSc2nnc(CNc3ccc(F)cc3)n2C2CCCCC2)s1	inactive: 12%
C=CCc1ccccc1OCC(CN1CCCCC1)OC(C)=O (configuration not stated)	inconclusive: -42%
O=C(Oc1cccnc1)c1ccc(Cl)c(Cl)c1	inconclusive: -31.2%
O=C(CN(Cc1cccs1)S(=O)(=O)c1ccc(S(=O)(=O)NC2CCCCC2)cc1)Nc1ccccc1	inconclusive: -45%
CCCC(=O)NC(c1ccco1)c1cc([N+](=O)[O-])c2cccnc2c1O (configuration not stated)	inconclusive: -31.5%
CC(=O)Nc1ccc(NC(=O)CN(c2cccc(C)c2)S(C)(=O)=O)cc1	inconclusive: -32.1%
Cc1ccc(OCc2nnn(CC(=O)NS(=O)(=O)c3c(C)noc3C)c2-c2ccccc2)cc1	inconclusive: -31.5%
OC(CSc1c(Cl)cccc1Cl)CN1CCN(c2ccc(F)cc2)CC1 (configuration not stated)	active: -88.6%
COc1cc(/C=N/NS(=O)(=O)c2ccc(C)c([N+](=O)[O-])c2)cc([N+](=O)[O-])c1O	inconclusive: -41.8%
Cc1cccc2sc(N(CCCN(C)C)C(=O)c3ccc(S(=O)(=O)N4CCc5ccccc5C4)cc3)nc12	inconclusive: -38.8%
Cc1ccc(NC(=O)c2nc[nH]c2C(=O)NCC(=O)OC(C)(C)C)cc1	inconclusive: -42.6%
CCOC(=O)c1c(NC(=O)CN2C(=O)NC3(CCCCC3C)C2=O)sc(C)c1CC (configuration not stated)	inconclusive: -46.1%
COc1ccc(NC(=O)C(=O)NCCN2CCN(C(=O)c3ccc(C)cc3)CC2)cc1	active: -69.9%
CCOc1cccc(CN2CCCC(C(=O)c3cc(Cl)ccc3OC)C2)c1O (configuration not stated)	active: -106%
COc1ccc([N+](=O)[O-])cc1NC(=O)c1cn(-c2ccc(Cl)cc2)c(=O)c2ccccc12	active: -53.2%
O=C(Nc1ccc(Oc2ccccc2)cc1)C1CCCO1 (configuration not stated)	active: -79%
CC(=O)N1CCN(c2ccc(NC(=O)c3ccc([N+](=O)[O-])cc3Cl)cc2)CC1	inactive: -5.09%
CC(=O)Oc1ccccc1Cn1c(C)c(C(=O)NCc2ccc(Cl)c(Cl)c2)sc1=O	inconclusive: -30.4%
Oc1c(Cl)cc(Cl)cc1C1=NNC(c2ccc(Cl)cc2)C1 (configuration not stated)	active: -64%
COc1nc(Nc2ccccc2)nc(OC)n1	inactive: 12.3%
COc1ccc(CCNC(=O)CSc2nnnn2-c2ccccc2OC)cc1OC	inconclusive: -31.8%

SMILES	max response, negative = inhibition
CC1(C(=O)NS(=O)(=O)Cc2cccc(Cl)c2)CCN1C(=O)c1cccc(F)c1 (configuration not stated)	inactive: 0%
Cc1cccc(-n2[nH]c3c4c(ccc3c2=O)C(=O)c2ccccc2C4=O)c1	active: -64.1%
Cc1ccc(NC(=O)C[n+]2cc(-c3ccccc3)n3c2CCC3)cc1	active: -111%
O=C(COc1ccccc1)N1CCN(C(=O)c2cccc(F)c2)CC1	inconclusive: -35.4%
O=C1C2CCCCN2C(=O)N1CCCCN1CCN(c2cccc(Cl)c2)CC1 (configuration not stated)	active: -60.5%
Clc1ccc(-n2nnc(-c3ncc[nH]3)n2)cc1Cl	inconclusive: -47%
Cc1cc(C)c2cc(C#N)c(N3CCCN(C(=O)c4cnccn4)CC3)nc2c1	inactive: 6.13%
CCOC(=O)[C@H]1[C@H]2COc3ccc(OC)cc3[C@@H]2N2C(=O)c3ccc(Cl)cc3NC(=O)[C@@]12C	inconclusive: -33.3%
O=S(=O)(Nc1cccc2ccccc12)c1cccc2nonc12	inconclusive: -32%
CN(C)c1ccc(NC(=O)CN2CCC(N3CCCCC3)CC2)cc1	inconclusive: -31.8%
CCN(C(=O)Cn1c(=O)oc2ccccc21)c1cccc(C)c1	inactive: -5.79%
O=C(Nc1nnc(-c2ccc(Cl)cc2)o1)Nc1ccccc1Cl	inactive: 14.9%
CNC(=O)c1sc(-c2ccc(Cl)cc2)nc1C	inconclusive: -48.8%
CCN1C(=NCCc2ccc([N+](=O)[O-])cc2)N[C@@H](c2ccccc2)[C@H](C(=O)OC)[C@H]1C	inconclusive: -32.4%
O=C1c2ccccc2C(=O)N1Cc1cc(Cl)c(O)c([N+](=O)[O-])c1	inactive: -8.17%
COc1ccccc1NC(=O)c1cc(S(=O)(=O)NCc2ccccc2)ccc1F	inactive: 8.87%
Cc1sc2ncnc(NCC(c3ccccc3)N(C)C)c2c1C (configuration not stated)	inconclusive: -40.9%
O=S(=O)(N/N=C\c1c(F)cccc1Cl)c1ccc(Cl)cc1	inconclusive: -46.2%
COc1cc(C2NC(=O)C(C#N)=C(S)N2c2ccc(C)cc2)ccc1OC(C)C (configuration not stated)	active: -68.2%
COc1ccc2c(c1OC)C(=O)OC2Nc1nc(-c2cc3cc(Br)ccc3oc2=O)cs1 (configuration not stated)	inactive: 0.509%
O=C(CCSc1ccccc1)NCCN1CCOCC1	inconclusive: -43.9%
Cc1cc(C)cc(-n2c3nc4ccccc4nc3c3c(=O)n(Cc4ccco4)cnc32)c1	inconclusive: -40%

SMILES	max response, negative = inhibition
O=C1Cc2cccc3cccc1c23	inactive: -4.99%
CCOC(=O)c1[nH]c2c(c1-c1ccccc1)C(=O)CC(c1ccc(Cl)cc1)C2 (configuration not stated)	inconclusive: -33.8%
CC(=NCCCn1ccnc1)c1c(O)n(Cc2ccccc2)c(=O)[nH]c1=O	inconclusive: -37.6%
COc1cccc(OC)c1OCC(O)CN1CCN(c2ccccc2F)CC1 (configuration not stated)	active: -56.9%
CCc1nnc(NC(=O)C2CCCN(C(=O)c3ccc(Cl)cc3)C2)s1 (configuration not stated)	inconclusive: -33.5%
OC1(c2ccccc2)CC(c2ccccc2)c2ccccc2O1 (configuration not stated)	inactive: 5.28%
NC(=O)C1(NC2CCCCC2)CCN(Cc2ccccc2)CC1	inconclusive: -37.9%
CCc1nc2ccc(C(=O)NCCCn3ccnc3)cn2c1N(C)CCCc1ccccc1	inconclusive: -40.6%
CCOC(=O)CCC(=O)OCC(=O)NC(C)C1CC2CCC1C2 (configuration not stated)	active: -55.1%
C[C@@H]1CN([C@H](C)CO)C(=O)CCCn2nncc2CO[C@@H]1CN(C)S(=O)(=O)c1cccc(C#N)c1	inactive: -18.1%
COc1ccc(S(=O)(=O)NC2CCCCCC2)cc1C(N)=O	inactive: 1.28%
Cc1csc(NC(=O)c2cc3c(s2)CCCCC3)n1	inconclusive: -30.2%
CCCn1c(SC(C)C(=O)NC2CCCC(C)C2C)n[nH]c1=O (configuration not stated)	inconclusive: -35.8%
Cc1cccc(N2CCN(CCCNC(=O)C3CCCN(c4ncnc5c4nc4n5CCCCC4)C3)CC2C)c1 (configuration not stated)	inactive: -28.7%
CCOC(=O)C1CCN(C(=O)Cn2c(=O)c3cccn3c3cccnc32)CC1	inactive: 3.77%
COc1ccc(C2=NN(C(=O)/C=C/c3ccccc3)C(c3ccccc3)C2)c(OC(C)=O)c1 (configuration not stated)	inconclusive: -47.2%
Cc1cc[n+](-c2nc3ccccc3nc2C(=C=[N-])C#N)cc1	inconclusive: -34.1%
Cc1c([N+](=O)[O-])c2ccc(O)cc2n1-c1ccccc1	inconclusive: -30.3%
COc1ccccc1N1CCN(C(=O)C(OC(C)=O)c2ccccc2)CC1 (configuration not stated)	inconclusive: -35.1%
O=C(N/N=C/c1cc2ccccc2nc1Cl)/C(=C/c1cccs1)NC(=O)c1ccccc1	inactive: 19.2%
C=C(C)COc1ccc(-c2[nH]ncc2-c2ccccc2OC)c(O)c1	active: -63.2%
CCN(CC)c1ccc(NC(=O)/C=C/c2cc(Br)ccc2OC)cc1	inconclusive: -35.1%

SMILES	max response, negative = inhibition
CCc1ccc(N(C(=O)CCC(=O)Nc2cc(C)on2)C(C(=O)NC(C)(C)C)c2ccc(OC)cc2)cc1 (configuration not stated)	inconclusive: -49%
CC(=O)N1c2c(cc(Br)cc2S(=O)(=O)N2CCN(C(=O)c3ccco3)CC2)CC1C (configuration not stated)	inactive: 6.34%
COc1ccc(C(CCN2CCOCC2)c2c(OC)cc(OC)c3c(-c4ccccc4)cc(=O)oc23)cc1 (configuration not stated)	inactive: 9.42%
CN(c1cccc(NC(=O)c2ccc(CN3CCc4ccccc4C3)cc2)c1)S(C)(=O)=O	active: -69.7%
CN(CC(=O)Nc1sccc1C#N)Cc1ccccc1	inactive: -14.3%
COc1cc([N+](=O)[O-])cc(/C=N/NC(=O)c2ccc(C)nc2)c1O	inconclusive: -47.3%
COc1cc(NC(=O)C2COc3ccccc3O2)c(OC)cc1Cl (configuration not stated)	inconclusive: -35.4%
Cc1ccc(O)c(N=Nc2nccs2)c1	inconclusive: -37.4%
Cc1cccc(C)c1-n1nnnc1-c1nc2cc(Br)ccc2[nH]c1=O	inconclusive: -38.1%
CC(C)(C)Nc1nc(Cl)nc(NC2CCCCC2)n1	inconclusive: -42.6%
CC(C)(C)c1ccc(S(=O)(=O)N(CCCN2CCOCC2)Cc2cccs2)cc1	active: -69.1% and active: -66.7%
Cn1c(N)c(C(=O)CSc2nc3ccccc3n2-c2ccccc2)c(=O)n(C)c1=O	inconclusive: -33.9%
COc1ccc(C(CNC(=O)COc2cccc(C)c2)N2CCCC2)cc1 (configuration not stated)	active: -75.7%
COc1ccc(NC(=O)Nc2nnc([C@H]3C[C@H](O)[C@@H](CO)O3)s2)cc1	inactive: 5.06%
NC(=O)COc1ccc(C(=O)NCC2(N3CCOCC3)CCCCC2)cc1	inactive: 14.6%
Oc1c(N=Nc2ccc(F)cc2)ccc2ccccc12	inconclusive: -35.6%
CCOc1ccc2nc(SCCNS(=O)(=O)c3ccccc3)sc2c1	inconclusive: -35.8%
CCN=C1SC(C(=O)Nc2cccc(C(=O)O)c2)CC(=O)N1CC (configuration not stated)	inconclusive: -38%
O=C(CCCC(=O)NNC(=O)Nc1ccccc1)NNC(=O)Nc1ccccc1	inactive: 4.89%
Cc1cc(C)c(NC(=O)NC2CCCCC2)c(C)c1	inconclusive: -33.4%
CSc1sc(C(=O)NNC(C)=O)c2c1C=CCC2	inactive: 15.4%
